We go through four molecules from PMC6050252.

Protein sequences, listed by entry. Tags and fused reporters are not part of them.
UniProt O54827: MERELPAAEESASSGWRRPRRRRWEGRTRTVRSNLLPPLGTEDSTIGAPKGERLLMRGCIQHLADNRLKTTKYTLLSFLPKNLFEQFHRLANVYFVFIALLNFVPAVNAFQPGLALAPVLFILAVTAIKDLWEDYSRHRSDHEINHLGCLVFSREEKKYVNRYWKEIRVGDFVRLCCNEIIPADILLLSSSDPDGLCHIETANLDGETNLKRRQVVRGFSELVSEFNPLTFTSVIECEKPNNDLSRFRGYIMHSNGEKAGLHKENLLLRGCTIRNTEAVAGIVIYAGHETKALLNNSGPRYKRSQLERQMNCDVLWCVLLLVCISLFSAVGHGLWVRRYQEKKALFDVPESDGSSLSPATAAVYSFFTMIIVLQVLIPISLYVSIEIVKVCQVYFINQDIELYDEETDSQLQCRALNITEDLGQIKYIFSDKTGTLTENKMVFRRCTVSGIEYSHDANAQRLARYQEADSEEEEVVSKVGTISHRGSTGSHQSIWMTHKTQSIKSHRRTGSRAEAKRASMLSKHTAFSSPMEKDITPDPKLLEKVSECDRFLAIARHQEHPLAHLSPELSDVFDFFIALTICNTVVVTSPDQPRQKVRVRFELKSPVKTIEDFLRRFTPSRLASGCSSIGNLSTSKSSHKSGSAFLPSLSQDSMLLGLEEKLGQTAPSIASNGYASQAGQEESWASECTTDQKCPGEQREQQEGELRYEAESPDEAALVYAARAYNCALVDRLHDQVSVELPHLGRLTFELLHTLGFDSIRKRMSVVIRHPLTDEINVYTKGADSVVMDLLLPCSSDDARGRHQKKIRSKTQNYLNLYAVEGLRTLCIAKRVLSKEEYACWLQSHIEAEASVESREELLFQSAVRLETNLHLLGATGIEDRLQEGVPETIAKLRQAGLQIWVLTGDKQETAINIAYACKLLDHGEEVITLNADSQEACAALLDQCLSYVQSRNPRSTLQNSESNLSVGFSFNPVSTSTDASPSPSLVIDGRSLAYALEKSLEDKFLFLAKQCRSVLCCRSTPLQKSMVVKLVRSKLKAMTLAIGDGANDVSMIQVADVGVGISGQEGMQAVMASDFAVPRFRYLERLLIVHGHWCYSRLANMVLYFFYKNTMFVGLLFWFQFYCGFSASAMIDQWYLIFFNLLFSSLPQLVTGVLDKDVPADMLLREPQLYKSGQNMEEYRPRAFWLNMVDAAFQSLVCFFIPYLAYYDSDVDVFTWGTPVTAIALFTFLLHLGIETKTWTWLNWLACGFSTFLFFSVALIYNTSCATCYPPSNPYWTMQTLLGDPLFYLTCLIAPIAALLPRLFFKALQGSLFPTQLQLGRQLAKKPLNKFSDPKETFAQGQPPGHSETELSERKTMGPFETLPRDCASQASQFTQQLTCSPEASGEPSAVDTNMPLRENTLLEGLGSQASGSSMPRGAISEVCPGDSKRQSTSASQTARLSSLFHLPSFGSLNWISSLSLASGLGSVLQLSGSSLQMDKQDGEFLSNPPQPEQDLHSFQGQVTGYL

Like-named read-outs stand apart in the source and are kept apart here. These are yes or no findings as the source states them, for the method shown. In cells and extracts the contact can be indirect. These calls come from enrichment with a bait or labelling near it, and not all partners need be listed.

Assay [1] has as its target T1, CDC50A (TMEM30A), mouse, endogenous (mouse (endogenous in mouse tissues)) (UniProt Q8VEK0).
T1 sequence: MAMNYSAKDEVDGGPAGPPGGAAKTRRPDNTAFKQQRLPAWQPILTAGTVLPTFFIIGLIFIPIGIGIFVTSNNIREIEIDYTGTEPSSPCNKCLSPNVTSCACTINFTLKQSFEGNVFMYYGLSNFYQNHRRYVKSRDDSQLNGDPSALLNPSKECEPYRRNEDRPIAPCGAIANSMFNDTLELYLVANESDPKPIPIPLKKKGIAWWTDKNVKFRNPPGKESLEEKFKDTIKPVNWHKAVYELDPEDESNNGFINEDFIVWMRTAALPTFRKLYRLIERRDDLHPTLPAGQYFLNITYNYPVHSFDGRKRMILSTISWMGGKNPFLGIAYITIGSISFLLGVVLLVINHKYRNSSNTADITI
As to the kind of experiment: affinity purification with mass spectrometry; CHAPS-solubilised membranes of mouse retina, liver, brain, testes, kidney (~20 mg protein) on Cdc50-7F4-Sepharose, 4 °C, 1 h; washed in 10 mM CHAPS, 40 mM Tris pH 7.4, 150 mM NaCl, 5 mM MgCl2, 1 mM DTT; eluted with 7F4 peptide; in-gel (retina) or FASP trypsin digestion, MS/MS.

Assay [2] concerns the target T1, CDC50A (TMEM30A), mouse, endogenous (mouse (endogenous in mouse tissues)). The description is as above. This is another data set of the same source.

Take “ATP10A, mouse, endogenous (from UniProt O54827 1-1508)”: the binding entry in assay [1] is reported as “binds”.

B1: ATP10D, mouse, endogenous (protein, UniProt Q8K2X1 1-1416)
chain: MTELLQWARHHWRRLSHGRAQGEDERPYNYASLLACGGKSSRTPRPAGKHRVVIPHLQCFKDEYERFSGTYVNNRIRTTKYTLLNFVPRNLFEQFHRAANLYFLFLVVLNWVPLVEAFQKEITMLPLVVVLTIIAIKDGLEDYRKYKIDKQINNLITKVYSRKEKKYIDCCWKNVTVGDFIRLSCNEIIPADMVLLFSTDPDGICHIETSGLDGESNLKQRQVVRGYTEQDSEVDPEKFSSRIECESPNNDLSRFRGFLEHANKERVGLSKENLLLRGCTIRNTEAVVGIVVYAGHETKAMLNNSGPRYKRSKLERRANTDVLWCVLLLIVMCLTGALGHGIWLSRYENMLFFNIPEPDGRVISPVLTGFYVFWTMIILLQVLIPISLYVSIEIVKLGQIYFIQSDVDFYNEKMDSTIQCRALNITEDLGQIQYLFSDKTGTLTENKMVFRRCSVAGFDYCHEENAKRLESYQEAVSEEEECTDTLGGSLSNMARPRAQGCRTVPSGPLGKPSAQLSGSTSAVGNGEGSGEVPHSRQAAFSSPMETDVVPDTRLLDKFSQLTPQLLTGLDGTAQSSPLETLYIMDFFIALAICNTVVVSAPNQPRQKIGLSSLGGMPIKSLEEIKNIFQKLSVRRSSSPSLASGKDSSSGTPCAFVSRISFFSRPKLSPPMEDESSQMDEIPQASNSACCTETEAQNRAVGLSVSSAEALSGPPPSASNLCYEAESPDEAALVYAARAYRCTLQSRTPEQVMVDFAALGSLTFQLLHILPFDSVRKRMSVVVRHPLSKQVVVYTKGADSVIMELLSVAASDGTNPEQQMIIRERTQRHLDEYAKRGLRTLCVAKKVMSDTEYAEWLRNHFLAETSIDNREELLVESAMRLENKLTLLGATGIEDRLQEGVPESIEALHQAGIKIWMLTGDKQETAVNIAYACKLLEPDDKLFILNTQSQDACGMLMSAILEELQKRAQVSPELASSRKNFPQPSDAQGQGRAGLVITGKTLEFALQESLQRQFLELTAWCQAVICCRATPLQKSEVVKLVRNHHHVLTLPIGDGANDVSMIQVADIGIGVSGQEGMQAVMASDFAISQFRHLSKLLLVHGHWCYTRLSNMILYFFYKNVAYVNLLFWYQFFCGFSGTSMTDYWVLIFFNLLFTSVPPIIYGVLEKDVSAETLLQLPELYRSGQRSEEYLPLTFWITLLDAFYQSLVCFFVPYFTYQGSDIDIFTFGNPLNTAALFIILLHLVIESKSLTWIHMLVTVGSILSYFFFALAFGALCVTCNPPSNPYGIMRKHMLDPVFYLVCVLTTFVALLPRFLYRVLQGSVFPSPVLRAKYFDRLPPEERAEALKRWRGTAKVNHVASKHASQSAAMSGRPTPGSSAVLAMKSATVSTVEQSTRETALDRGCSEPGASKMTGSSAS
For B1, the binding result in assay [2] is on record as “binds”.

B2: ATP8B2, mouse, endogenous (protein, UniProt P98199 1-1209)
chain: MTVPKEIPEKWARAGAPPSWSQKKPSWGTEEERRARANDREYNEKFQYASNCIKTSKYNIVTFLPVNLFEQFQEVANTYFLFLLILQLIPQISSLSWFTTIVPLVLVLTITAVKDATDDYFRHKSDNQVNNRHSQVLINGVLQQEQWMNVCVGDIIKLENNQFVAADLLLLSSSEPHGLCYIETAELDGETNMKVRQAIPVTSELGDVSQLARFDGEVICEPPNNKLDKFSGTLYWKENKFPLSNQNMLLRGCVLRNTEWCFGLVIFAGPDTKLMQNSGRTKFKRTSIDRLMNTLVLWIFGFLVCMGVILAIGNAIWEHEVGTRFQVYLPWDEAVDSAFFSGFLSFWSYIIILNTVVPISLYVSVEVIRLGHSYFINWDKKMFCMKKRTPAEARTTTLNEELGQVEYIFSDKTGTLTQNIMVFNKCSINGHSYGDVFDVLGHKAELGERPEPVDFSFNPLADKKFLFWDSSLLEAVKMGDPHTHEFFRLLSLCHTVMSEEKNEGELYYKAQSPDEGALVTAARNFGFVFRSRTPKTITVHELGTAITYQLLAILDFNNIRKRMSVIVRNPEGKIRLYCKGADTILLDRLHPPTQELLSSTTDHLNEYAGDGLRTLVLAYKDLDEEYYEEWARRRLQASLAQDSREDRLASIYEEVESDMMLLGATAIEDKLQQGVPETIALLTLANIKIWVLTGDKQETAVNIGYSCKMLTDDMTEVFVVTGHTVLEVREELRKARKKMVDSSHAVGNGFTYQGNLSSSKLTSVLEAVAGEYALVINGHSLAHALEADMELEFLETACACKAVICCRVTPLQKAQVVELVKKYKKAVTLAIGDGANDVSMIKTAHIGVGISGQEGIQAVLASDYSFSQFKFLQRLLLVHGRWSYLRMCKFLCYFFYKNFAFTMVHFWFGFFCGFSAQTVYDQYFITLYNIVYTSLPVLAMGVFDQDVPEQRSMEYPKLYEPGQLNLLFNKREFFICIAQGIYTSVLMFFIPYGVFAEATRDDGTQLADYQSFAVTVATSLVIVVSVQIGLDTGYWTAINHFFIWGSLAVYFAILFAMHSNGLFDMFPNQFRFVGNAQNTLAQPTVWLTIALTTAVCIMPVVAFRFLRLSLKPDLSDTVRYTQLVRKKQKAQHRCMRRVGRTGSRRSGYAFSHQEGFGELIMSGKNMRLSSLALSSFSTRSSSSWIESLRRKKSDSANSPSGGAEKPLKG
Consider B2, for which, in assay [2], the binding result is recorded as “binds”.

B3: ATP8B3, mouse, endogenous (protein, UniProt Q6UQ17 1-1335)
chain: MDGVHLGENLEDKDTEFTWEVKANDRTYHKQFKKKGFLCWRQKKYKSNAIHTAKYNIFSFLPLNLYEQFHRMSNLYFLFIIILQGIPEISTLPWFTLFAPLVCLFVIRATRDLVDDIGRHRSDKIINNRPCQILRGKSFLWKKWKNLCVGDVVCLSKDSIVPADLLLLASTEPSSLCYVETADIDGETNLKFRQALTVTHHELTSPKKMASFQGTVTCEEPNSRMHHFVGSLEWNSRKYPLDIGNLLLRGCKIRNTDTCYGLVIYAGLDTKIMKNCGKIHLKRTKLDLMMNKLVALIFLSLVIASLLLTVGFTFMVKQFKAKHYYMSPTHGRSDAMESFFIFWGFLILLSVMVPMAMFIIAEFIYLGNSIFINWDLNMYYEPLDMPAKARSTSLNDQLGQVQYIFSDKTGTLTQNIMTFKKCCINGCIYDSDDEHGTLRKRNPYAWNPFADGKLQFYNKELESLVQGRQDRAVQEFWRLLAICHTVMVQEKDNQLLYQAASPDEEALVTAARNFGYVFLSRTQDTITLVELGEERVYQVLAMMDFNSVRKRMSVLVRNPEGSICLYTKGADTVILERLRSKGVMEATTEEVLAAFAEQTLRTLCLAYKDVEEDAYKEWEPEHQEAALLLQNRAQALHQVYNKMEQNLQLLGATAIEDKLQDGVPETIKCLKKGNIKIWVLTGDKPETAVNIGFACQLLSENMIILEDKDINQVLERYWEDNVHQKAFKMMTHHNMALVINGEFLDQLLLSLRKEPRALVQNAVVDEVAQEPVVSALDFLQKRRISQMWRNAGPSLGTSHSADSKIRESPEVQRERAFVDLASKCQAVICCRVTPKQKALVVALVKKYQQVVTLAIGDGANDVNMIKTADIGVGLAGQEGMQAVQNSDYVLAQFCYLQRLLLVHGRWSYMRVCKFLRYFFYKTVASMMAQIWFSLVNGFSAQPLYEGWFLALFNLLYSTLPVLYIGLFEQDVTAEKSLKMPELYMAGQKGELFNYSIFMQAITHGTITSMINFFVTVMVSSDMSKAGSSHDYQSLGVLVAISSLLSVTLEVMLVVKYWTLLFVGAVVLSLSSYVLMTSLTQSLWMYRISPKTFPFLFADYNVLFEPCSLLLIVLNVALNVLPMLALRTIHRTVLKQRPKGEEEAPSEEVAVEPAMRHLRRGIPARRSSYAFSHREGYANLITQGTILRRQTHVDDSDGGTVCESLNPPEEDIPLQNKDSVFNPRKISILAKKRRHFFGKGSQEEVHPNTSSQTMEKQPTIHRDSETQKLPTTTSATSGKLLPSASEDEAFYSVASQYTLASQPKHTDVHSSFWKSPLWRDSASSSPSQLEVPRKQS
As for B3, the binding entry in assay [2] is “binds”.
